{"source": "the supplement of paper PMC8728848", "binders": {"B1": {"name": "CcfD (Bacteroides fragilis), Q5L9G4 (protein)", "chain": "MKKQNSIYTLLIALLCFVSSCDYLGVSDQLAGGLQNTEQVFDNVSYTKRWYANVFAGIPDYSGINSVNVGAFKNPWTGMCDELVVGYGNSSKYNNSDRNAANMGFHRYGDCYKYIRQANIFLQKAHPIMTTGTQGDQLLEDELTQMKANVRFMRAFYHYLLFEQYGPIILVKDKIYNATEDQDVPRNTVDEVIEYIDSELTAVASELTQEPIFEDKDYRAWPTKGVALAVRAKLWLYAASPLLNGGYREALSVTNPDGTRLFPDYDAGKWEKALAACKDFIDYAEAGRYELYKEYKDDNGAVIDPDKSVYNLFQKYTHEIIWATANNDWGGMNGDAFDRRIAPRCEKNGLGSTGVTQELVDAFYMKDGFPVSATAYLPQSTLYQEEGYGTYKDQNDNFSKKYTNVTVSNRYLNREPRFYNTVFFNGRQWPVSCNQVLFYNGGNSGVQEGQATLTGYMLFKRFNRSVSLTNPGVASQFRPSIIFRLADFYLMYAEAANEVNPNDARVLKYLNLVRERAGLPDIETLNPAIRGNQELQRAAIQRERQIELATEGQRYFDVRRWMIADKNGEGRQNGYVHGMNVRGESNDKEDFNRIVEASQIVFNRKMYLYPMPDSEMRKTKNLVQNPGW"}}, "assay_in_all_cases": "glycan array binding signal (z-score within array); higher = stronger binding", "settings_in_all_cases": "glycan notation: IUPAC condensed, linker removed", "key": {"[1]": {"molecular_target": "Gal(b1-3)GlcNAc(b1-2)Man(a1-3)[Gal(b1-3)GlcNAc(b1-2)Man(a1-6)]Man(b1-4)GlcNAc(b1-4)GlcNAc", "summary_of_the_method": "(§1)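 From the Consortium for Functional Glycomics database, 3228 arrays were curated, keeping only those whose protein sequence was available. Binding is given as a within-array Z-score averaged across arrays sharing a protein sequence and across linkers. Negative Z-scores can be read as non-binding.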"}, "[2]": {"molecular_target": "Gal(b1-3)GlcNAc(b1-2)Man(a1-3)[Gal(b1-3)GlcNAc(b1-2)Man(a1-6)]Man(b1-4)GlcNAc(b1-4)[Fuc(a1-6)]GlcNAc", "summary_of_the_method": "as §1"}, "[3]": {"molecular_target": "Gal(b1-3)GlcNAc(b1-2)Man(a1-3)[GlcNAc(b1-4)][Gal(b1-3)GlcNAc(b1-2)Man(a1-6)]Man(b1-4)GlcNAc(b1-4)GlcNAc", "summary_of_the_method": "as §1"}, "[4]": {"molecular_target": "Gal(b1-3)GlcNAc(b1-2)[Gal(b1-3)GlcNAc(b1-6)]Man(a1-6)[Gal(b1-3)GlcNAc(b1-2)Man(a1-3)]Man(b1-4)GlcNAc(b1-4)GlcNAc", "summary_of_the_method": "as §1"}, "[5]": {"molecular_target": "Gal(b1-3)GlcNAc(b1-3)Gal(b1-3)GlcNAc", "summary_of_the_method": "as §1"}, "[6]": {"molecular_target": "Gal(b1-3)GlcNAc(b1-3)Gal(b1-4)Glc", "summary_of_the_method": "as §1"}, "[7]": {"molecular_target": "Gal(b1-3)GlcNAc(b1-3)Gal(b1-4)GlcNAc", "summary_of_the_method": "as §1"}, "[8]": {"molecular_target": "Gal(b1-3)GlcNAc(b1-3)Gal(b1-4)GlcNAc(b1-2)Man(a1-3)[Gal(b1-3)GlcNAc(b1-3)Gal(b1-4)GlcNAc(b1-2)Man(a1-6)]Man(b1-4)GlcNAc(b1-4)GlcNAc", "summary_of_the_method": "as §1"}, "[9]": {"molecular_target": "Gal(b1-3)GlcNAc(b1-3)Gal(b1-4)GlcNAc(b1-2)[Gal(b1-3)GlcNAc(b1-3)Gal(b1-4)GlcNAc(b1-6)]Man(a1-6)[Gal(b1-3)GlcNAc(b1-3)Gal(b1-4)GlcNAc(b1-2)Man(a1-3)]Man(b1-4)GlcNAc(b1-4)[Fuc(a1-6)]GlcNAc", "summary_of_the_method": "as §1"}, "[10]": {"molecular_target": "Gal(b1-3)GlcNAc(b1-3)Gal(b1-4)GlcNAc(b1-3)Gal(b1-4)GlcNAc(b1-2)[Gal(b1-3)GlcNAc(b1-3)Gal(b1-4)GlcNAc(b1-3)Gal(b1-4)GlcNAc(b1-6)]Man(a1-6)[Gal(b1-3)GlcNAc(b1-3)Gal(b1-4)GlcNAc(b1-3)Gal(b1-4)GlcNAc(b1-2)Man(a1-3)]Man(b1-4)GlcNAc(b1-4)[Fuc(a1-6)]GlcNAc", "summary_of_the_method": "as §1"}, "[11]": {"molecular_target": "Gal(b1-3)GlcNAc(b1-3)Gal(b1-4)GlcNAc(b1-6)[Gal(b1-3)GlcNAc(b1-3)]Gal(b1-4)Glc", "summary_of_the_method": "as §1"}, "[12]": {"molecular_target": "Gal(b1-3)GlcNAc(b1-3)Gal(b1-4)[Fuc(a1-3)]GlcNAc", "summary_of_the_method": "as §1"}, "[13]": {"molecular_target": "Gal(b1-3)GlcNAc(b1-3)Gal(b1-4)[Fuc(a1-3)]GlcNAc(b1-6)[Gal(b1-3)GlcNAc(b1-3)]Gal(b1-4)Glc", "summary_of_the_method": "as §1"}, "[14]": {"molecular_target": "Gal(b1-3)GlcNAc(b1-3)GalNAc", "summary_of_the_method": "as §1"}, "[15]": {"molecular_target": "Gal(b1-3)GlcNAc(b1-6)Gal(b1-4)GlcNAc", "summary_of_the_method": "as §1"}, "[16]": {"molecular_target": "Gal(b1-3)GlcNAc(b1-6)GalNAc", "summary_of_the_method": "as §1"}, "[17]": {"molecular_target": "Gal(b1-3)GlcNAc(b1-6)[Gal(b1-3)]GalNAc", "summary_of_the_method": "as §1"}, "Gal(b1-3)GlcNAc6S": {"molecular_target": "Gal(b1-3)GlcNAc6S", "summary_of_the_method": "as §1"}, "[18]": {"molecular_target": "Gal(b1-3)[Fuc(a1-4)]GlcNAc", "summary_of_the_method": "as §1"}, "[19]": {"molecular_target": "Gal(b1-3)[Fuc(a1-4)]GlcNAc(b1-2)Man", "summary_of_the_method": "as §1"}, "[20]": {"molecular_target": "Gal(b1-3)[Fuc(a1-4)]GlcNAc(b1-2)Man(a1-3)[Gal(b1-3)[Fuc(a1-4)]GlcNAc(b1-2)Man(a1-6)]Man(b1-4)GlcNAc(b1-4)[Fuc(a1-6)]GlcNAc", "summary_of_the_method": "as §1"}, "[21]": {"molecular_target": "Gal(b1-3)[Fuc(a1-4)]GlcNAc(b1-3)Gal(b1-3)[Fuc(a1-4)]GlcNAc", "summary_of_the_method": "as §1"}, "[22]": {"molecular_target": "Gal(b1-3)[Fuc(a1-4)]GlcNAc(b1-3)Gal(b1-4)[Fuc(a1-3)]GlcNAc", "summary_of_the_method": "as §1"}, "[23]": {"molecular_target": "Gal(b1-3)[Fuc(a1-4)]GlcNAc(b1-6)GalNAc", "summary_of_the_method": "as §1"}, "[24]": {"molecular_target": "Gal(b1-3)[GlcNAc(b1-6)]GalNAc", "summary_of_the_method": "as §1"}, "[25]": {"molecular_target": "Gal(b1-3)[Neu5Ac(a2-6)]GalNAc", "summary_of_the_method": "as §1"}, "[26]": {"molecular_target": "Gal(b1-3)[Neu5Ac(a2-6)]GlcNAc(b1-4)Gal(b1-4)Glc", "summary_of_the_method": "as §1"}, "[27]": {"molecular_target": "Gal(b1-3)[Neu5Ac(b2-6)]GalNAc", "summary_of_the_method": "as §1"}, "Gal(b1-4)Gal": {"molecular_target": "Gal(b1-4)Gal", "summary_of_the_method": "as §1"}, "[28]": {"molecular_target": "Gal(b1-4)GalNAc(a1-3)[Fuc(a1-2)]Gal(b1-4)GlcNAc", "summary_of_the_method": "as §1"}}, "note": "The other results are listed elsewhere or left out.", "data": [{"binder": "B1", "values": [{"measurement": "glycan array binding signal (z-score)", "setting": "[1]", "result": -0.686}, {"measurement": "glycan array binding signal (z-score)", "setting": "[2]", "result": -0.365}, {"measurement": "glycan array binding signal (z-score)", "setting": "[3]", "result": 0.082}, {"measurement": "glycan array binding signal (z-score)", "setting": "[4]", "result": -0.292}, {"measurement": "glycan array binding signal (z-score)", "setting": "[5]", "result": 1.94}, {"measurement": "glycan array binding signal (z-score)", "setting": "[6]", "result": -0.713}, {"measurement": "glycan array binding signal (z-score)", "setting": "[7]", "result": -1.11}, {"measurement": "glycan array binding signal (z-score)", "setting": "[8]", "result": -0.036}, {"measurement": "glycan array binding signal (z-score)", "setting": "[9]", "result": -0.516}, {"measurement": "glycan array binding signal (z-score)", "setting": "[10]", "result": 0.351}, {"measurement": "glycan array binding signal (z-score)", "setting": "[11]", "result": -0.056}, {"measurement": "glycan array binding signal (z-score)", "setting": "[12]", "result": -0.785}, {"measurement": "glycan array binding signal (z-score)", "setting": "[13]", "result": -0.719}, {"measurement": "glycan array binding signal (z-score)", "setting": "[14]", "result": -0.942}, {"measurement": "glycan array binding signal (z-score)", "setting": "[15]", "result": 0.03}, {"measurement": "glycan array binding signal (z-score)", "setting": "[16]", "result": 2.12}, {"measurement": "glycan array binding signal (z-score)", "setting": "[17]", "result": 0.115}, {"measurement": "glycan array binding signal (z-score)", "setting": "Gal(b1-3)GlcNAc6S", "result": -1.02}, {"measurement": "glycan array binding signal (z-score)", "setting": "[18]", "result": 0.008}, {"measurement": "glycan array binding signal (z-score)", "setting": "[19]", "result": -1.36}, {"measurement": "glycan array binding signal (z-score)", "setting": "[20]", "result": -0.535}, {"measurement": "glycan array binding signal (z-score)", "setting": "[21]", "result": -0.765}, {"measurement": "glycan array binding signal (z-score)", "setting": "[22]", "result": 2.86}, {"measurement": "glycan array binding signal (z-score)", "setting": "[23]", "result": -0.036}, {"measurement": "glycan array binding signal (z-score)", "setting": "[24]", "result": -0.41}, {"measurement": "glycan array binding signal (z-score)", "setting": "[25]", "result": 0.561}, {"measurement": "glycan array binding signal (z-score)", "setting": "[26]", "result": 0.607}, {"measurement": "glycan array binding signal (z-score)", "setting": "[27]", "result": -0.982}, {"measurement": "glycan array binding signal (z-score)", "setting": "Gal(b1-4)Gal", "result": -0.076}, {"measurement": "glycan array binding signal (z-score)", "setting": "[28]", "result": -0.069}]}]}
